Measurements from PubChem BioAssay AID1259354 (Paczesny and Yang Labs, IUPUI and University of Michigan, 2018).
In all, about 78,000 compounds went through this assay and about 1,800 (2.3%) were called active. Inconclusive results, whose numbers are uncertain, are shown with a selection of clear calls. No stated cut-off is given here; in the data, active means inhibition above about 30%; inconclusive means mostly about 10% to 28%; inactive means weaker than that.

Chains of the proteins cited; added tags and fusions are not shown. Lines headed by an entry give the natural chain unless they say otherwise; changes in a name come on top.
UniProt Q01638: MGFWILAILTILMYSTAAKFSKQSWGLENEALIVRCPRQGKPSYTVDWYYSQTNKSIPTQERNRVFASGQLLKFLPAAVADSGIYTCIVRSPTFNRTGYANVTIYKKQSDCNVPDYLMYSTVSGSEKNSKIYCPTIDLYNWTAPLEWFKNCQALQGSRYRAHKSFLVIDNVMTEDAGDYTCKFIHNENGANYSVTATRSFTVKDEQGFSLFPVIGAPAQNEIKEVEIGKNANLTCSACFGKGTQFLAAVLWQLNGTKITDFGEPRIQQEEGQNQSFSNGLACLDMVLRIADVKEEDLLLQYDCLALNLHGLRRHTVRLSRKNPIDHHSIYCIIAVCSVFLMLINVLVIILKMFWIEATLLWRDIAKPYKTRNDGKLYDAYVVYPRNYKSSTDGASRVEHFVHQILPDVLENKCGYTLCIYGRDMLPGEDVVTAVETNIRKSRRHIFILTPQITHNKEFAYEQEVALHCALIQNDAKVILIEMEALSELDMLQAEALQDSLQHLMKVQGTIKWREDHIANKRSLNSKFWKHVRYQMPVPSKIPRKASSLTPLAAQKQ

Each compound was assayed against Interleukin-1 receptor-like 1 (Homo sapiens) (UniProt Q01638) (assay: blocks human ST2 binding to IL-33, primary screen, biochemical, AlphaLISA (AID 1259354)). Settings: AlphaLISA ST2-Fc/biotin-IL-33 interaction, 1 h; at 17 µM, stronger effect = higher value.

Row | SMILES | inhibition
1 | CC(C)c1cncnc1N1CCCC2(C1)C(=O)N(C)c1ccccc12 (stereo unspecified) | inconclusive: 15%
2 | CCOc1ccc(/C=C2\N=C(c3ccc(Cl)cc3Cl)OC2=O)cc1 | inconclusive: 16%
3 | OCC1(CCOc2ccccc2)CCCN(c2nnnn2-c2ccccc2)C1 (stereo unspecified) | inactive
4 | O=C(NCc1ccco1)c1cc(-c2ccc(Cl)c(Cl)c2)on1 | inactive
5 | CCOc1ccc(S(=O)(=O)Nc2nc3c(C)cccc3s2)c2cccnc12 | inactive
6 | CCN(CC)c1ccc(NS(=O)(=O)c2ccc(OC)cc2)cc1 | active: 35%
7 | Cc1nc(CCNC(=O)c2cn(CCN3CCOCC3)nn2)sc1C | inconclusive: 10%
8 | CCn1c(CN2CCC(c3cc(C(C)C)n[nH]3)CC2)nc2ccccc21 | inactive
9 | COCc1c(C(=O)N[C@@H]2C[C@@H](C(=O)OC)N(C)C2)noc1C | inactive
10 | O=C(CC(O)CCc1ccccc1)c1ccccc1 (stereo unspecified) | inconclusive: 16%
11 | O=C1O[C@@H]2[C@H]3[C@@H]([C@H]1C[C@H]2O)N(c1ccc(Cl)cc1)C(=S)N3Cc1ccccc1 | inconclusive: 14%
12 | COc1ccc(N2CCN(c3ncnc4sc(C(=O)N5CCC(C)CC5)c(C)c34)CC2)cc1 | inactive
13 | CC(C)C(C)n1nccc1NC(=O)c1ccc(-n2cnnc2)nc1 (stereo unspecified) | inactive
14 | O=C(c1ccc2ccccc2c1)C1CCCN(Cc2nnc(-c3cccnc3)o2)C1 (stereo unspecified) | inconclusive: 16%
15 | O=S(=O)(c1ccc(F)cc1)N1CCN(c2ccc(F)cc2)CC1 | inconclusive: 15%
16 | O=C(COC(=O)c1ccc(Cl)cc1)c1ccc(Br)cc1 | inactive
17 | O=C(c1oc(=O)c2ccccc2c1-c1ccccc1)N1CCn2c1nc1ccccc12 | inconclusive: 13%
18 | Cc1ccc(CN2CCN(C3CCN(c4ccccc4F)CC3)CC2CCO)o1 (stereo unspecified) | inactive
19 | CCC(CC)C(=O)NC[C@H]1O[C@@H](CC(=O)N2CCN(c3ccc(F)cc3)CC2)[C@H](O)[C@@H]1O | inconclusive: 14%
20 | CCOc1cccc2cc(C(N)=O)c(=Nc3ccc(C(C)=O)cc3)oc12 | inconclusive: 18%
21 | COc1ccc(-c2nc3cnccn3c2Nc2ccccc2)cc1 | inactive
22 | Cc1ccc2nc(NC(N)=NS(=O)(=O)c3ccc([N+](=O)[O-])cc3)nc(C)c2c1 | inconclusive: 22%
23 | O=C(COc1ccccc1)NCc1nc2ccccc2[nH]1 | inconclusive: 14%
24 | Cc1ccc(-c2nnc(-c3nc(N4CCc5ccccc54)c4ccccc4n3)o2)cc1 | inconclusive: 12%
25 | CCn1c(C2CCCN(C(=O)Cc3sc(C)nc3C)C2)nn(C)c1=O (stereo unspecified) | inconclusive: 10%
26 | COc1cc(Cc2ccc(N)c(OC)c2)ccc1N | inconclusive: 28%

Shown field by field: two of the compounds above
COc1ccc(N2CCN(c3ncnc4sc(C(=O)N5CCC(C)CC5)c(C)c34)CC2)cc1
  inhibition: inactive
CC(C)C(C)n1nccc1NC(=O)c1ccc(-n2cnnc2)nc1 (stereo unspecified)
  inhibition: inactive
